Test results as given in PubChem BioAssay AID2098 (Broad Institute, 2009).
Screen size: about 300,000 compounds; about 2,300 (0.77%) were called active. The shares of active, inactive and inconclusive entries below differ from those in the screen.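 Rule for the calls: active = more than half of replicate wells show activity change below -50%, luminescence cut by over half; inconclusive = some wells, but at most half, below -50%; inactive = no replicate well below -50%.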

Experiment: HSF1 inhibitors in luciferase reporter cells, primary screen, cell-based, NIH3T3, luminescence (AID 2098);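 note: luciferase reports HSF-1 transcriptional activity via heat shock element; 0% = median of DMSO wells and -100% = zero luminescence signal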
Details: NIH3T3-HGL HSE-luciferase, MG132-induced, luminescence 8 h; hits give low values; screened at 7.5 µM (by protocol)

Row | SMILES | activity change, negative = inhibition
1 | Cc1cc(O)c(C=Nc2ccc(N3CCOCC3)cc2)c(C)c1Cl | inconclusive: -50%
2 | NNc1nnc2c3cc(F)ccc3n(CCc3ccccc3)c2n1 | inconclusive: -47.8%
3 | CCCc1nnc(NC(=O)c2nc(S(=O)(=O)Cc3ccc(C)cc3)ncc2Cl)s1 | active: -80%
4 | COc1ccc(-c2noc(N3CCC(C(=O)Nc4ccc(OC)cc4OC)CC3)n2)cc1 | inconclusive: -49.2%
5 | CN1CCc2c(sc3c2C(=O)NC(c2ccc(-c4ccc(Cl)cc4)o2)N3)C1 (centres undefined) | active: -86.3%
6 | Cc1ccc(S(=O)(=O)N2CCN(CC(=O)N/N=C/c3ccccc3OCC(=O)O)CC2)cc1 | inconclusive: -34.2%
7 | COc1ccc2ccccc2c1/C=N/N1C(=O)CSC1=S | inconclusive: -49.5%
8 | CCC(C)(C)c1ccc(OC(=O)c2cccnc2Cl)cc1 | inactive: 24.5%
9 | NC(=O)c1ccccc1NC(=O)CSc1nc2c(c(=O)[nH]1)CCCC2 | inactive: 3.01%
10 | Cc1ccc(Cl)c(OCCN2CCCC(C)C2)c1 (centres undefined) | inactive: 0.39%
11 | CCc1ccccc1NC(=O)COc1cccc2ccc(C)nc12 | active: -77.4%
12 | NC(=O)Cn1c(=O)n(CCC(=O)NCCSCc2ccccc2)c(=O)c2ccccc21 | inactive: 5.2%
13 | O=C(NC(=S)Nc1ccc(S(=O)(=O)Nc2nccs2)cc1)c1ccc(Br)o1 | inactive: -1.69%
14 | CC(C)c1ccc(/C=N/Nc2ccc(C(=O)O)cc2)cc1 | active: -90%
15 | Cc1ccc(C)c(C(=O)Nc2cc(C)nn2-c2nc(C)cc(C)n2)c1 | inconclusive: -49.7%
16 | O=C1CCc2cc(S(=O)(=O)NC(Cc3ccccc3)C(=O)N3CCN(c4ccccn4)CC3)ccc2N1 (centres undefined) | inactive: 8.45%
17 | O=[N+]([O-])c1cc(S(=O)(=O)C(F)(F)F)ccc1Sc1nc2ccccc2s1 | inconclusive: -46.5%
18 | O=C(CCl)N(c1ccccc1)C1CCCCC1 | inconclusive: -56%
19 | Cc1ccc(-n2nc(C)c3cc(C(=O)O)sc32)cc1 | active: -69.4%
20 | CN(CC(=O)Nc1cccc(F)c1)C(=O)c1cc(S(=O)(=O)N2CCCCC2)ccc1N1CCOCC1 | inconclusive: -32.7%
21 | COc1ccc(N2CCN(C(=O)CCCn3c(=O)[nH]c4ccsc4c3=O)CC2)cc1 | inconclusive: -49.8%
22 | C/C=C1\COC(C(=O)NCc2ccccc2)(C(F)(F)F)C=C1C=C1CCCCC1 (centres undefined) | inactive: 53%
23 | O=S(=O)(NCC1CCN(S(=O)(=O)c2ccccc2)CC1)c1ccccc1 | inconclusive: -49.2%
24 | Cc1nn(CC(=O)NCCCN2CCC(Cc3ccccc3)CC2)c(=O)c2cc(-c3ccccc3)nn12 | inconclusive: -51.8%

Quoted at random: 2 records from the list.
Row | SMILES | activity change, negative = inhibition
3 | CCCc1nnc(NC(=O)c2nc(S(=O)(=O)Cc3ccc(C)cc3)ncc2Cl)s1 | active: -80%
14 | CC(C)c1ccc(/C=N/Nc2ccc(C(=O)O)cc2)cc1 | active: -90%
